The target of assay [1] is T1, Dual specificity tyrosine-phosphorylation-regulated kinase 1B (Homo sapiens, UniProt Q9Y463). Nature of the assay: Inhibition of recombinant Dyrk1B (unknown origin) using FITC-Asp-His-Thr-Gly-Phe-Leu-Thr-Glu-Tyr-Val-Ala-Thr-Arg-NH2 as substrate after 60 mins.
The target in assay [2] is T1, Dual specificity tyrosine-phosphorylation-regulated kinase 1B. Kind of assay: Inhibition of human full length C-terminal c-Myc tagged Dyrk1B phosphorylation overexpressed in monkey COS1 cells after 5 hrs by ELISA. The assay is classed as cell-based, COS-1. The procedure, abridged: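 Cos-1 cells transiently overexpressing cMyc-tagged Dyrk; phospho-Dyrk pS421 inhibition measured after 5 h compound treatment. IC50 in micromolar, mean of at least n = 2 independent measurements.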
For orientation: ELISA stands for enzyme-linked immunosorbent assay.

Sequences of proteins named here, by UniProt entry; tags and fusion partners are left off.
UniProt Q9Y463, whole entry: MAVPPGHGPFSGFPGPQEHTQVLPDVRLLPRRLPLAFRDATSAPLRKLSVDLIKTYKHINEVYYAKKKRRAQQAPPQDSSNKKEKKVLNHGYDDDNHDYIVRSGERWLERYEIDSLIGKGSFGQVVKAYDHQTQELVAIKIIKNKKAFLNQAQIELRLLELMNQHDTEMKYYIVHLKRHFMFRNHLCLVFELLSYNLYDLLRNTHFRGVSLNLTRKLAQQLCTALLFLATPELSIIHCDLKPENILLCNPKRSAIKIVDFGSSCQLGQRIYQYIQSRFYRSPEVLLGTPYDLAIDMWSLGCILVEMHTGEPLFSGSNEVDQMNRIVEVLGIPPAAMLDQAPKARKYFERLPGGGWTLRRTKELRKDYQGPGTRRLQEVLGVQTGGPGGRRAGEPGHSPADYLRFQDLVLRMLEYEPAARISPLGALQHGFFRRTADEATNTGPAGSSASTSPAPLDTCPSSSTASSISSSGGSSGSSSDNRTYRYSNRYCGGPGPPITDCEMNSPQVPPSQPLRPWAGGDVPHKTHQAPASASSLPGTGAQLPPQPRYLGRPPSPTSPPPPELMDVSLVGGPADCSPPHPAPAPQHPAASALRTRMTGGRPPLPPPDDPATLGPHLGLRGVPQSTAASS

What is called IC50 is the concentration needed to halve the response being measured.

As for `COc1cc(N2CCN(C)CC2)ccc1Nc1nccc(-c2cn(C)c3cnccc23)n1`, the IC50 in assay [1] amounted to 3 nM; in assay [2], 42 nM.

Values taken from ChEMBL document CHEMBL3421608, “Discovery and optimization of a novel series of Dyrk1B kinase inhibitors to explore a MEK resistance hypothesis” (J Med Chem, 2015).
